Laboratory results taken from the supplement of paper PMC10849652.
The other results are listed elsewhere or left out.

Amino acid sequences for entries named in this document (tags omitted). A change or cut given only in a name is not applied to a line headed by its entry.
UniProt Q8WVJ2: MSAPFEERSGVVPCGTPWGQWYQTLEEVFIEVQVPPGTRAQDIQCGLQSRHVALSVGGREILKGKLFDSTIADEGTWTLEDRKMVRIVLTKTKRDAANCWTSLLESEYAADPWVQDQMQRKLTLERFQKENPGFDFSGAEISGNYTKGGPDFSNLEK
UniProt Q8WV22: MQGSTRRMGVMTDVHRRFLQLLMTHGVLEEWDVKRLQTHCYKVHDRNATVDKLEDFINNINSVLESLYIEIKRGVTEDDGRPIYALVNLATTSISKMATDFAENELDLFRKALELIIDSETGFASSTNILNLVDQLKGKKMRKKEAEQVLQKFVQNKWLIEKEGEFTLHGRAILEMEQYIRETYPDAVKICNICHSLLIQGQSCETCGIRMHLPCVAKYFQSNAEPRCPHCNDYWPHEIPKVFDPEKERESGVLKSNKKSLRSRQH
UniProt Q9UMY1: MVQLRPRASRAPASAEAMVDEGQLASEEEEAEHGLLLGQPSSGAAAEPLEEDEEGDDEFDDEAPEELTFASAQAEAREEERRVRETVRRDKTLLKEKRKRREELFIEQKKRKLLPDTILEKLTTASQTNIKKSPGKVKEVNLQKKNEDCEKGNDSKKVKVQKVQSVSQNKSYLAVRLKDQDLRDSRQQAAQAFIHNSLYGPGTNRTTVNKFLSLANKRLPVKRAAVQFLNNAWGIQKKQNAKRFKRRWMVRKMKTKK
UniProt Q8NC60: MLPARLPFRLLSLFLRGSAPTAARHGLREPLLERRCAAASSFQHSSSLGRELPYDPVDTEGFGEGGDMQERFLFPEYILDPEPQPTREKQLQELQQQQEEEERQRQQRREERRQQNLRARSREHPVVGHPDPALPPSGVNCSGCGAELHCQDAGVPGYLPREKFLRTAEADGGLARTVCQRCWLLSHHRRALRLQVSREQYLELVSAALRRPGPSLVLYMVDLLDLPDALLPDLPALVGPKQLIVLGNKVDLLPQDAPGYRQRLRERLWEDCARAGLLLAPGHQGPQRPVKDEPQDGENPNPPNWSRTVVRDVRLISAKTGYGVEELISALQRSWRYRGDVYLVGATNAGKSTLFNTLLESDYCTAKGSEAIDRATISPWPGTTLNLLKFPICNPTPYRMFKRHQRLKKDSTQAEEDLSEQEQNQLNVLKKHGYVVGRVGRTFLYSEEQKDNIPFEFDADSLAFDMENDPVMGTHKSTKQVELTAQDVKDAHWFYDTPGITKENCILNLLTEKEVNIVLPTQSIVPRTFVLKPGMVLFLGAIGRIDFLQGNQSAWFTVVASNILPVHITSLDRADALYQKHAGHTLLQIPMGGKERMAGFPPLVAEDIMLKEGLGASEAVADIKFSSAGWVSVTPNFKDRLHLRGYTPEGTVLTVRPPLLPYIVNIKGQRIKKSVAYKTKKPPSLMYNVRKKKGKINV
UniProt Q8TEA1: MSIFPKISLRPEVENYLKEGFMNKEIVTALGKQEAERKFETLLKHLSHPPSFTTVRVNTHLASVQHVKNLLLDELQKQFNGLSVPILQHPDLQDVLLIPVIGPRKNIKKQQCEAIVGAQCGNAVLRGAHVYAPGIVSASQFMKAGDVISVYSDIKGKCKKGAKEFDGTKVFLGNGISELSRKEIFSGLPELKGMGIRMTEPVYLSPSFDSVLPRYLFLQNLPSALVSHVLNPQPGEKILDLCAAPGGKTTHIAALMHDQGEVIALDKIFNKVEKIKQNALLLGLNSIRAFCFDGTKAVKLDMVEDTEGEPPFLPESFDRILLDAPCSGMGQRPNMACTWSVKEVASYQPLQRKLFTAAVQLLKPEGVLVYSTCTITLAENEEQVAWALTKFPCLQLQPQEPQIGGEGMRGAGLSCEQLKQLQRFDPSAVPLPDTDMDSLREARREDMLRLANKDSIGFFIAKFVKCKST
UniProt Q9NSY0: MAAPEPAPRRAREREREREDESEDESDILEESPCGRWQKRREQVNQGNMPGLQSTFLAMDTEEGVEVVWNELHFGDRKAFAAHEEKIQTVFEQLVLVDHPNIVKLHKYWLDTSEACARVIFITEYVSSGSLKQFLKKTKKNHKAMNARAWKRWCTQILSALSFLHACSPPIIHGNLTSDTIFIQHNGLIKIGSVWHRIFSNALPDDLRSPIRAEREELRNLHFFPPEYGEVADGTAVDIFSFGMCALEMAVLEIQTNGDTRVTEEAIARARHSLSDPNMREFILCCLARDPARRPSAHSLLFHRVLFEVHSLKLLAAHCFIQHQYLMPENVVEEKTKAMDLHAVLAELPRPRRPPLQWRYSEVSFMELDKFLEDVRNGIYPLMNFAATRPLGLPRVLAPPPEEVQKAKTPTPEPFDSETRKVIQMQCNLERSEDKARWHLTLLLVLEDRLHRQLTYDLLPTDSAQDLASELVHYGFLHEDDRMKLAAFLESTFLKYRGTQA
UniProt P53384: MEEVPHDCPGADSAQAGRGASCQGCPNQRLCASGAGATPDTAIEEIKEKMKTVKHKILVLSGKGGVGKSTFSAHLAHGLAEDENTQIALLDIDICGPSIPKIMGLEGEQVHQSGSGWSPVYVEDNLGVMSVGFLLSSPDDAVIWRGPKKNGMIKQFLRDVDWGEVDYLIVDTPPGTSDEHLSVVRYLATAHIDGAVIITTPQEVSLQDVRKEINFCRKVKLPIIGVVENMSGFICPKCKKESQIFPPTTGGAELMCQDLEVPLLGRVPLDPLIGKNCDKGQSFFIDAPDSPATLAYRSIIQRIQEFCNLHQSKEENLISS
UniProt Q9BQG2: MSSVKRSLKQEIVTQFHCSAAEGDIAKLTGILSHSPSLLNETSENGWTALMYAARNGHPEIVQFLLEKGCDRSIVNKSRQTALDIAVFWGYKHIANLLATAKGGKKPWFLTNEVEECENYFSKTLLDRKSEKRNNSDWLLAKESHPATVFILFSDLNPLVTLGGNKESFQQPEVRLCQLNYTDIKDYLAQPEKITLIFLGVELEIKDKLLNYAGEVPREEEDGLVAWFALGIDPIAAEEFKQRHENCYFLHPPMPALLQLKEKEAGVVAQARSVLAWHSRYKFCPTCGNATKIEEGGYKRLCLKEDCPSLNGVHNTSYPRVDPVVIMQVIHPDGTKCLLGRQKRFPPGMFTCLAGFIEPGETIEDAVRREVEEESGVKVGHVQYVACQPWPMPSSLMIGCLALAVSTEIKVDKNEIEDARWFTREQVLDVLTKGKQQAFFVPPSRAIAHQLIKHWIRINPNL
UniProt Q15738: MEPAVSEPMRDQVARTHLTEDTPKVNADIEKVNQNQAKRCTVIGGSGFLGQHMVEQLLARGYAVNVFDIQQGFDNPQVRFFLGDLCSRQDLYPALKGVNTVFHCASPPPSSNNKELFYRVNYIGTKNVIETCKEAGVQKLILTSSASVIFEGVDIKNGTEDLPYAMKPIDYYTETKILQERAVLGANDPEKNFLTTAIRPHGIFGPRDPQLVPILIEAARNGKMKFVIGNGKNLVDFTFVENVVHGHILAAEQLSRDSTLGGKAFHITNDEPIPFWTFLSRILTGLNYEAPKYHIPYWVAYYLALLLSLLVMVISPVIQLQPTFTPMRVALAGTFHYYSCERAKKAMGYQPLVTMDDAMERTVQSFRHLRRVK
UniProt Q9Y639: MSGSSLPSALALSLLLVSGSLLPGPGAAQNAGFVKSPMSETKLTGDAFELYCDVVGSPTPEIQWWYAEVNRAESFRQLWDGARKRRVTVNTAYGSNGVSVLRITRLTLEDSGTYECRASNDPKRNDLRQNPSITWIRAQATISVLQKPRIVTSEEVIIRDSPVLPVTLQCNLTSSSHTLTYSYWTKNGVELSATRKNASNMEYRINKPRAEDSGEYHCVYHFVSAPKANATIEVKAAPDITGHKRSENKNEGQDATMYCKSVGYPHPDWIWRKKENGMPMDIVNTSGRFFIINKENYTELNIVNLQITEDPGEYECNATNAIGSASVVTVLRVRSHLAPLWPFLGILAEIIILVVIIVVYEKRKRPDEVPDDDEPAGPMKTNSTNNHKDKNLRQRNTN
UniProt Q7Z417: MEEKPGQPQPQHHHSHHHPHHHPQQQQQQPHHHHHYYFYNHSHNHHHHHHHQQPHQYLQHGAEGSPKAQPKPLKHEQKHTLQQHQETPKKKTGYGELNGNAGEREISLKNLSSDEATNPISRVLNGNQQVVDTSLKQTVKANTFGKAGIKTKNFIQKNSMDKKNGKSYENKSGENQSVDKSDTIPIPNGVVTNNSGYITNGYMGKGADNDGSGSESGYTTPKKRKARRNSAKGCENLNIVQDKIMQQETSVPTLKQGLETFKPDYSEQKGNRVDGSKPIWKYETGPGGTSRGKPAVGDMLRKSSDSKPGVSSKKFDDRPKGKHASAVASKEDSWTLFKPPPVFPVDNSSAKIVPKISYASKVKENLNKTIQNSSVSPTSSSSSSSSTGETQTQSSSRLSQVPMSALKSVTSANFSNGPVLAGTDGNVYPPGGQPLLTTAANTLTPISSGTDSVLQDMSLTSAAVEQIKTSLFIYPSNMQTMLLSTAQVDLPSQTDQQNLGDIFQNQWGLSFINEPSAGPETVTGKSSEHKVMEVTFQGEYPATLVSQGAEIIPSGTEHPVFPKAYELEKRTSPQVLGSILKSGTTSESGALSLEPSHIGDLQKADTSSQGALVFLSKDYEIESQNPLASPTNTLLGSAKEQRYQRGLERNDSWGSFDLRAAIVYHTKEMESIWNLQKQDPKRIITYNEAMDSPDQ
UniProt Q02818: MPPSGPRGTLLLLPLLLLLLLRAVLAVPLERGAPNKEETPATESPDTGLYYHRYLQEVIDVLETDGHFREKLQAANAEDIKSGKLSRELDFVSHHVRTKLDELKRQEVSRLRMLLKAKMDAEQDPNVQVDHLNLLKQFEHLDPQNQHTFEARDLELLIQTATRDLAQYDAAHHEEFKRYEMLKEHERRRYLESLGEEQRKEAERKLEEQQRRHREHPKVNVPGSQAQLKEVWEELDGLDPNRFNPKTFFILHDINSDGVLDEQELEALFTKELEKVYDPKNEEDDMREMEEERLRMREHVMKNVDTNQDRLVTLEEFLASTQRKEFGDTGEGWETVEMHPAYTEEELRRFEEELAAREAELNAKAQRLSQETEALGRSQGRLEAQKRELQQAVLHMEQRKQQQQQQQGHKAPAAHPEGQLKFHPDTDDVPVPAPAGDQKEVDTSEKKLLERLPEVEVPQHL
UniProt Q9Y6R0: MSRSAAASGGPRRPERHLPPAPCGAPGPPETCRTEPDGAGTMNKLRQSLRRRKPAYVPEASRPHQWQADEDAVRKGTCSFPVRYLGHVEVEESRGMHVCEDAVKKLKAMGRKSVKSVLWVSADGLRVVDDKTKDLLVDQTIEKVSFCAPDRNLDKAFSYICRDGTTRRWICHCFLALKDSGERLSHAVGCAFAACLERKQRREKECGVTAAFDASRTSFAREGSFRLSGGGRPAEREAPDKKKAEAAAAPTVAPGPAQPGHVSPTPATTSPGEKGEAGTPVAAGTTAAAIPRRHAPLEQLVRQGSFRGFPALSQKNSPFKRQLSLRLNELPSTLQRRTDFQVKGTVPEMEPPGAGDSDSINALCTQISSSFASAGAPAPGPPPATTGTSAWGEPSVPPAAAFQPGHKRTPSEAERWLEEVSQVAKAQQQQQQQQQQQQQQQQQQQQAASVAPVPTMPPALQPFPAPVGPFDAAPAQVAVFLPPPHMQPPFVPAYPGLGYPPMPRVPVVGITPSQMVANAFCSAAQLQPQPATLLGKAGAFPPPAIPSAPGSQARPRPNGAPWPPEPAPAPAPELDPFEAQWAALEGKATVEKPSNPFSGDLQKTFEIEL
UniProt Q9BW91: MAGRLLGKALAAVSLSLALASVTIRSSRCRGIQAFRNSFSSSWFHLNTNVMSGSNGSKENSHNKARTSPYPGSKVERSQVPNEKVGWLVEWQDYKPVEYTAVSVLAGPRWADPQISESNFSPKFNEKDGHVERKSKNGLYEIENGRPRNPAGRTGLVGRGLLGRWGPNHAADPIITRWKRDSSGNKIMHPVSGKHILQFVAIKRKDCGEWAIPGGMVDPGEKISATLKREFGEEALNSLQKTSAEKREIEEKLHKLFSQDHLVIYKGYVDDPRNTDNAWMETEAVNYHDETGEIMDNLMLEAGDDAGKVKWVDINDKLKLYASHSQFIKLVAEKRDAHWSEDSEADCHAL
UniProt Q9NZJ9: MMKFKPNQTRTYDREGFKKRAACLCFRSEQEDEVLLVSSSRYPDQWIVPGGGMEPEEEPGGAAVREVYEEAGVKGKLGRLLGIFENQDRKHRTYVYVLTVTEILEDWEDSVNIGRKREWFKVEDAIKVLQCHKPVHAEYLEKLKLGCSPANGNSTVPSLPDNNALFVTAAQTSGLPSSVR

Legend:
Experiment in all cases: log2 fold change, soluble protein after heating vs DMSO (PISA); higher = thermal stabilisation; K562 lysate, 10 uM; active = over 0.2 and 3.5 SD of the protein, either way, in both replicates (recomputed)
vemurafenib = compound: CCCS(=O)(=O)Nc1ccc(F)c(C(=O)c2c[nH]c3ncc(-c4ccc(Cl)cc4)cc23)c1F [vemurafenib]
In short: (§1)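 Pellets of K562 cells were dounce-homogenised in PBS pH 7.4 with 1 mM MgCl2, and the crude extract was held at 1 mg/mL protein for a 30 min treatment with 10 μM compound. Aliquots were heated for 3 min over 48°C-58°C and pooled before NP-40 was added to 0.5% at 4°C. The supernatant from 21,000xg for 90 min was quantified by TMTpro 16plex LC-MS/MS with channel sums equalised. Values are reported from duplicates as log-two fold change in thermal stability relative to solvent controls.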

[1] = compound: CCCS(=O)(=O)Nc1ccc(F)c(C(=O)c2c[nH]c3ncc(Cl)cc23)c1F
In short: as §1

barasertib = compound: CCN(CCCOc1ccc2c(Nc3cc(CC(=O)Nc4cccc(F)c4)[nH]n3)ncnc2c1)CCOP(=O)(O)O [barasertib]
In short: as §1

[2] = compound: CC[C@@H]1C(=O)N(C)c2cnc(Nc3ccc(C(=O)NC4CCN(C)CC4)cc3OC)nc2N1C1CCCC1
In short: as §1

volasertib = compound: CC[C@@H]1C(=O)N(C)c2cnc(Nc3ccc(C(=O)N[C@H]4CC[C@H](N5CCN(CC6CC6)CC5)CC4)cc3OC)nc2N1C(C)C [volasertib]
In short: as §1

[3] = compound: CCn1c(C(=O)N(C2CC2)C2CC2)cc2c3c(ncn3C)c(Nc3cc(C)n(C)n3)nc21
In short: as §1

[4] = compound: CCn1cc(-c2ccnc3[nH]c(-c4cccc(CN(C)C)c4)cc23)c(-c2ccc(NC(=O)N(C)C)cc2)n1
In short: as §1

[5] = compound: CN1CCC(CNc2ccc3ncc(-c4cccc(OC(F)(F)F)c4)n3n2)CC1
In short: as §1

saracatinib = compound: CN1CCN(CCOc2cc(OC3CCOCC3)c3c(Nc4c(Cl)ccc5c4OCO5)ncnc3c2)CC1 [saracatinib]
In short: as §1

sotrastaurin = compound: CN1CCN(c2nc(C3=C(c4c[nH]c5ccccc45)C(=O)NC3=O)c3ccccc3n2)CC1 [sotrastaurin]
In short: as §1

alvocidib = compound: CN1CC[C@H](c2c(O)cc(O)c3c(=O)cc(-c4ccccc4Cl)oc23)[C@H](O)C1 [alvocidib]
In short: as §1

Tubastatin A = compound: CN1CCc2c(c3ccccc3n2Cc2ccc(C(=O)NO)cc2)C1 [Tubastatin A]
In short: as §1

[6] = compound: CNC(=O)C1=CC=CC=C1NC2=NC(=NC=C2Cl)NC3=C(C=C(C=C3)N4CCOCC4)OC
In short: as §1

defactinib = compound: CNC(=O)c1ccc(Nc2ncc(C(F)(F)F)c(NCc3nccnc3N(C)S(C)(=O)=O)n2)cc1 [defactinib]
In short: as §1

[7] = compound: CNc1nc(-c2ccc3c(N)n[nH]c3c2)cc(N2C[C@@H](C(=O)NC3CCCCC3)CC[C@H]2C)n1
In short: as §1

encorafenib = compound: COC(=O)N[C@@H](C)CNc1nccc(-c2cn(C(C)C)nc2-c2cc(Cl)cc(NS(C)(=O)=O)c2F)n1 [encorafenib]
In short: as §1

[8] = compound: COC(=O)[C@H](CCSC)NC(=O)C1=C(C=C(C=C1)NC[C@H](CS)N)C2=CC=CC=C2
In short: as §1

alisertib = compound: COc1cc(Nc2ncc3c(n2)-c2ccc(Cl)cc2C(c2c(F)cccc2OC)=NC3)ccc1C(=O)O [alisertib]
In short: as §1

[9] = compound: COc1cc2nc(-c3cc(F)ccc3O)nc(N[C@@H]3CNC[C@H]3C(C)(C)O)c2cc1OC
In short: as §1

gefitinib = compound: COc1cc2ncnc(Nc3ccc(F)c(Cl)c3)c2cc1OCCCN1CCOCC1 [gefitinib]
In short: as §1

Measured: log2 fold change

NOP53 (UniProt Q9NZM5)
inactive: vemurafenib 0.021 | [1] 0.033 | barasertib 0.022 | [2] 0.027 | volasertib -0.001 | [3] -0.028 | [4] 0.014 | [5] -0.168 | saracatinib -0.016 | sotrastaurin -0.01 | alvocidib 0.047 | Tubastatin A -0.008 | [6] -0.014 | defactinib 0.039 | [7] 0.066 | encorafenib 0.073 | [8] 0.003 | alisertib 0.255 | [9] -0.008 | gefitinib -0.038

NUDCD2 (UniProt Q8WVJ2)
inactive: vemurafenib -0.022 | [1] 0.035 | barasertib 0.008 | [2] 0.047 | volasertib 0.02 | [3] -0.018 | [4] -0.031 | [5] 0.003 | saracatinib -0.014 | sotrastaurin -0.017 | alvocidib 0.002 | Tubastatin A 0.002 | [6] -0.004 | defactinib -0.034 | [7] 0.12 | encorafenib -0.015 | [8] -0.09 | alisertib 0.037 | [9] 0.015 | gefitinib -0.039

NSMCE1 (UniProt Q8WV22)
inactive: vemurafenib -0.026 | [1] -0.011 | barasertib -0.018 | [2] 0.053 | volasertib -0.032 | [3] -0.04 | [4] 0.02 | [5] -0.017 | saracatinib 0.019 | sotrastaurin 0.007 | alvocidib 0.02 | Tubastatin A 0 | [6] 0.007 | defactinib 0.015 | [7] 0.015 | encorafenib 0.026 | [8] -0.012 | alisertib 0.022 | [9] -0.013 | gefitinib 0.006

NOL7 (UniProt Q9UMY1)
inactive: vemurafenib -0.016 | [1] -0.044 | barasertib -0.004 | [2] 0.014 | volasertib 0.02 | [3] 0.004 | [4] 0.123 | [5] -0.108 | saracatinib -0.053 | sotrastaurin 0.023 | alvocidib 0.08 | Tubastatin A -0.01 | [6] 0.018 | defactinib -0.023 | [7] 0.093 | encorafenib 0.051 | [8] 0.018 | alisertib 0.011 | [9] -0.037 | gefitinib 0.047

NOA1 (UniProt Q8NC60)
inactive: vemurafenib 0.041 | [1] -0.009 | barasertib 0.043 | [2] 0.029 | volasertib -0.024 | [3] -0.083 | [4] -0.229 | [5] 0.028 | saracatinib 0.016 | sotrastaurin 0.037 | alvocidib -0.016 | Tubastatin A -0.11 | [6] 0.063 | defactinib -0.076 | [7] 0.063 | encorafenib -0.049 | [8] -0.023 | alisertib 0.039 | [9] 0.023 | gefitinib -0.042

NSUN6 (UniProt Q8TEA1)
inactive: vemurafenib 0.039 | [1] 0.015 | barasertib 0.044 | [2] -0.031 | volasertib 0.017 | [3] -0.025 | [4] -0.022 | [5] 0.009 | saracatinib -0.007 | sotrastaurin -0.023 | alvocidib 0.004 | Tubastatin A -0.013 | [6] 0.039 | defactinib -0.003 | [7] 0.032 | encorafenib 0.002 | [8] 0.023 | alisertib 0.004 | [9] 0.048 | gefitinib -0.009

NRBP2 (UniProt Q9NSY0)
inactive: vemurafenib -0.026 | [1] -0.005 | barasertib 0.027 | [2] -0.007 | volasertib 0.025 | [3] -0.016 | [4] 0.071 | [5] -0.188 | saracatinib 0 | sotrastaurin -0.064 | alvocidib -0.027 | Tubastatin A 0.035 | [6] 0.03 | defactinib -0.101 | [7] 0.004 | encorafenib 0.036 | [8] 0.033 | alisertib 0.011 | [9] -0.01 | gefitinib 0.131

Reprinted from above (4 entries):
NOP53 (UniProt Q9NZM5)
inactive: vemurafenib 0.021 | [1] 0.033 | barasertib 0.022 | [2] 0.027 | volasertib -0.001 | [3] -0.028 | [4] 0.014 | [5] -0.168 | saracatinib -0.016 | sotrastaurin -0.01 | alvocidib 0.047 | Tubastatin A -0.008 | [6] -0.014 | defactinib 0.039 | [7] 0.066 | encorafenib 0.073 | [8] 0.003 | alisertib 0.255 | [9] -0.008 | gefitinib -0.038

NUDCD2 (UniProt Q8WVJ2)
inactive: vemurafenib -0.022 | [1] 0.035 | barasertib 0.008 | [2] 0.047 | volasertib 0.02 | [3] -0.018 | [4] -0.031 | [5] 0.003 | saracatinib -0.014 | sotrastaurin -0.017 | alvocidib 0.002 | Tubastatin A 0.002 | [6] -0.004 | defactinib -0.034 | [7] 0.12 | encorafenib -0.015 | [8] -0.09 | alisertib 0.037 | [9] 0.015 | gefitinib -0.039

NSMCE1 (UniProt Q8WV22)
inactive: vemurafenib -0.026 | [1] -0.011 | barasertib -0.018 | [2] 0.053 | volasertib -0.032 | [3] -0.04 | [4] 0.02 | [5] -0.017 | saracatinib 0.019 | sotrastaurin 0.007 | alvocidib 0.02 | Tubastatin A 0 | [6] 0.007 | defactinib 0.015 | [7] 0.015 | encorafenib 0.026 | [8] -0.012 | alisertib 0.022 | [9] -0.013 | gefitinib 0.006

NOL7 (UniProt Q9UMY1)
inactive: vemurafenib -0.016 | [1] -0.044 | barasertib -0.004 | [2] 0.014 | volasertib 0.02 | [3] 0.004 | [4] 0.123 | [5] -0.108 | saracatinib -0.053 | sotrastaurin 0.023 | alvocidib 0.08 | Tubastatin A -0.01 | [6] 0.018 | defactinib -0.023 | [7] 0.093 | encorafenib 0.051 | [8] 0.018 | alisertib 0.011 | [9] -0.037 | gefitinib 0.047

(cont.)

NUBP1 (UniProt P53384)
inactive: vemurafenib 0.009 | [1] -0.026 | barasertib 0.006 | [2] -0.037 | volasertib 0.01 | [3] 0.035 | [4] -0.012 | [5] 0.005 | saracatinib 0.004 | sotrastaurin -0.047 | alvocidib 0.022 | Tubastatin A -0.064 | [6] 0.033 | defactinib -0.003 | [7] 0.002 | encorafenib -0.006 | [8] 0.007 | alisertib 0.004 | [9] 0.021 | gefitinib 0.013

NUDT12 (UniProt Q9BQG2)
inactive: vemurafenib -0.005 | [1] -0.002 | barasertib 0.008 | [2] 0.036 | volasertib -0.002 | [3] -0.027 | [4] -0.035 | [5] 0.097 | saracatinib -0.015 | sotrastaurin 0.004 | alvocidib 0.014 | Tubastatin A 0 | [6] 0.059 | defactinib -0.004 | [7] 0.103 | encorafenib 0.036 | [8] -0.08 | alisertib -0.037 | [9] 0.02 | gefitinib 0.084

NSDHL (UniProt Q15738)
inactive: vemurafenib 0.041 | [1] 0.001 | barasertib 0.02 | [2] 0.074 | volasertib 0.013 | [3] -0.022 | [4] -0.073 | [5] 0.033 | saracatinib -0.014 | sotrastaurin -0.011 | alvocidib 0.003 | Tubastatin A 0.018 | [6] -0.004 | defactinib -0.05 | [7] -0.005 | encorafenib -0.005 | [8] 0 | alisertib 0.084 | [9] -0.068 | gefitinib -0.001

NPTN (UniProt Q9Y639)
inactive: vemurafenib -0.028 | [1] -0.042 | barasertib 0.007 | [2] 0.032 | volasertib -0.038 | [3] -0.017 | [4] -0.019 | [5] 0.052 | saracatinib 0.02 | sotrastaurin -0.016 | alvocidib -0.023 | Tubastatin A -0.01 | [6] 0 | defactinib -0.185 | [7] 0.03 | encorafenib -0.023 | [8] 0.015 | alisertib 0.011 | [9] 0.042 | gefitinib 0.024

NUFIP2 (UniProt Q7Z417)
inactive: vemurafenib -0.019 | [1] 0.036 | barasertib -0.04 | [2] 0.04 | volasertib -0.002 | [3] 0.032 | [4] -0.026 | [5] 0.02 | saracatinib 0.007 | sotrastaurin 0.022 | alvocidib 0.002 | Tubastatin A 0.008 | [6] 0.022 | defactinib 0.085 | [7] 0.053 | encorafenib 0.043 | [8] 0.023 | alisertib -0.015 | [9] 0.009 | gefitinib 0.001

NUCB1 (UniProt Q02818)
inactive: vemurafenib 0.028 | [1] 0.016 | barasertib 0.025 | [2] 0.009 | volasertib 0.018 | [3] 0.026 | [4] 0.01 | [5] -0.019 | saracatinib 0.018 | sotrastaurin 0.008 | alvocidib 0.009 | Tubastatin A 0.057 | [6] -0.007 | defactinib -0.047 | [7] -0.019 | encorafenib -0.026 | [8] 0.011 | alisertib 0.01 | [9] 0.008 | gefitinib 0.021

NUMBL (UniProt Q9Y6R0)
inactive: vemurafenib -0.06 | [1] 0.014 | barasertib -0.005 | [2] -0.009 | volasertib -0.037 | [3] 0.189 | [4] 0.032 | [5] -0.011 | saracatinib 0.052 | sotrastaurin -0.278 | alvocidib -0.032 | Tubastatin A -0.103 | [6] -0.023 | defactinib -0.218 | [7] 0.023 | encorafenib 0.189 | [8] -0.068 | alisertib -0.064 | [9] 0.044 | gefitinib 0.09

NUDT9 (UniProt Q9BW91)
inactive: vemurafenib 0.018 | [1] 0.025 | barasertib -0.049 | [2] -0.001 | volasertib 0.006 | [3] -0.003 | [4] -0.036 | [5] 0.021 | saracatinib -0.011 | sotrastaurin 0.02 | alvocidib 0.019 | Tubastatin A -0.032 | [6] 0.037 | defactinib 0.03 | [7] -0.023 | encorafenib 0.018 | [8] -0.09 | alisertib -0.045 | [9] 0.005 | gefitinib 0.011

NUDT4 isoform 2 (UniProt Q9NZJ9)
inactive: vemurafenib 0.009 | [1] 0.021 | barasertib -0.05 | [2] 0.013 | volasertib 0.005 | [3] -0.018 | [4] -0.068 | [5] 0.058 | saracatinib 0.076 | sotrastaurin 0 | alvocidib -0.001 | Tubastatin A -0.101 | [6] 0.01 | defactinib -0.07 | [7] 0.073 | encorafenib 0.025 | [8] -0.129 | alisertib 0.012 | [9] 0.003 | gefitinib -0.023
